Source: US20220119493A1, “IL-7R-ALPHA BINDING COMPOUNDS” (MEDIKINE, INC., priority 2020, published 2022)
Part of at least one peptide drawing is inferred or uncertain, most often the ends. Some compounds share one wording; it may come from a single statement.

Protein sequences, listed by entry. Tags and fused reporters are not part of them. Residues count along the entry.
UniProt P16871, 21-236: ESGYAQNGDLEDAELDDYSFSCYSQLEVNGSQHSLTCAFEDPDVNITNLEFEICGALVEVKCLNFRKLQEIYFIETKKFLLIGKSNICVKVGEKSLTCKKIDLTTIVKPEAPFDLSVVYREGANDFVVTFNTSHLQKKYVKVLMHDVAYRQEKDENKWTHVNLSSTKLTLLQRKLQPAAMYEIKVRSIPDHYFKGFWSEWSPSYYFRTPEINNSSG

Target: T1, IL-7Rα subunit (Homo sapiens, UniProt P16871)
T1 construct: Fc; purchased ACRObiosystems, Inc. ILB-H5258
Test: Competition with IL-7 for binding to IL-7Rα

SMILES	competitive binding with IL-7 binding to IL-7Rα
CC[C@H](C)[C@@H]1NC(=O)[C@@H](NC(=O)[C@@H](N)CCC(N)=O)CSSC[C@@H](C(=O)N[C@H](C(=O)O)C(C)C)NC(=O)[C@H](CO)NC(=O)[C@H](CC(C)C)NC(=O)[C@H](CC(C)C)NC(=O)[C@H]([C@@H](C)O)NC(=O)[C@H](CCC(=O)O)NC(=O)[C@H]([C@@H](C)CC)NC(=O)[C@H](CC(=O)O)NC(=O)[C@H](Cc2c[nH]c3ccccc23)NC(=O)[C@H](Cc2c[nH]cn2)NC1=O [compound 5]	do not bind competitively
CC[C@H](C)[C@@H]1NC(=O)[C@H](CCC(=O)O)NC(=O)[C@H](C)NC(=O)[C@@H](NC(=O)[C@H](Cc2ccc(O)cc2)NC(=O)[C@@H](N)C(C)C)CSSC[C@@H](C(=O)N[C@@H](CCCNC(=N)N)C(=O)N[C@@H](CCC(N)=O)C(=O)O)NC(=O)[C@H](C(C)C)NC(=O)[C@H](CCCNC(=N)N)NC(=O)[C@H](Cc2ccc(O)cc2)NC(=O)[C@H](CCC(=O)O)NC(=O)CNC1=O [compound 43]	do not bind competitively
CSCC[C@H](NC(=O)[C@@H](N)Cc1ccc(O)cc1)C(=O)N[C@@H](C)C(=O)N[C@H]1CSSC[C@@H](C(=O)N[C@@H](CCCNC(=N)N)C(=O)N[C@@H](CC(C)C)C(=O)N[C@@H](CO)C(=O)O)NC(=O)[C@H](CC(C)C)NC(=O)[C@H](CO)NC(=O)[C@H](CC(C)C)NC(=O)CNC(=O)[C@H](CO)NC(=O)[C@H](CO)NC1=O [compound 104]	do not bind competitively
CC[C@H](C)[C@H](NC(=O)[C@@H]1CSSC[C@H](NC(=O)[C@@H](N)CCC(N)=O)C(=O)N[C@@H](C(C)C)C(=O)N[C@@H](Cc2c[nH]cn2)C(=O)N[C@@H](Cc2c[nH]c3ccccc23)C(=O)N[C@@H](CC(=O)O)C(=O)N[C@@H](CC(C)C)C(=O)N[C@@H](CC(=O)O)C(=O)N[C@@H]([C@@H](C)O)C(=O)N[C@@H](CC(C)C)C(=O)N[C@@H](Cc2ccccc2)C(=O)NCC(=O)N1)C(=O)N[C@@H](CCCNC(=N)N)C(=O)N[C@@H](CCC(=O)O)C(=O)N[C@@H](CCC(N)=O)C(=O)N[C@@H](CC(C)C)C(=O)N[C@@H](CCC(=O)O)C(=O)N[C@@H](CC(C)C)C(=O)O [compound 146]	do not bind competitively
CC(C)C[C@@H]1NC(=O)[C@H](CO)NC(=O)CNC(=O)[C@@H]2CCCN2C(=O)[C@H](CC(=O)O)NC(=O)[C@H](CC(C)C)NC(=O)[C@H]([C@@H](C)O)NC(=O)[C@@H](NC(=O)[C@H](Cc2c[nH]c3ccccc23)NC(=O)[C@@H]2CCCN2C(=O)[C@@H](NC(=O)CNC(=O)CN)C(C)C)CSSC[C@@H](C(=O)N[C@@H](C)C(=O)N[C@@H](Cc2c[nH]c3ccccc23)C(=O)N[C@@H](Cc2ccccc2)C(=O)O)NC(=O)[C@H](CCC(N)=O)NC1=O [compound 458]	do not bind competitively
